Data: patent US12325701B2, “YKL-40 inhibitors and their therapeutic” (Molecure S.A., priority 2022, dated 2025)

Assay: AlphaScreen false positive test with biotinylated histag peptide
Details: biotinylated histag peptide generates AS signal

Molecule	interference with AS signal in false positive test
CC(=O)N[C@H]1[C@H](O[C@H]2[C@H](O)[C@@H](NC(C)=O)[C@H](O[C@H]3[C@H](O)[C@@H](NC(C)=O)C(O)O[C@@H]3CO)O[C@@H]2CO)O[C@H](CO)[C@@H](O[C@@H]2O[C@H](CO)[C@@H](O[C@@H]3O[C@H](CO)[C@@H](O[C@@H]4O[C@H](CO)[C@@H](O)[C@H](O)[C@H]4NC(C)=O)[C@H](O)[C@H]3NC(C)=O)[C@H](O)[C@H]2NC(C)=O)[C@@H]1O (some centres unmarked) [chitin hexamer, chitohexose]	non-interfering
heparin sodium salt	not-interfering
